Data as given in PubChem BioAssay AID652243 (Drosophila RNAi Screening Center, 2013)

Purpose: 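Knock-downs that decrease or increase androgen receptor reporter signal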 (primary screen)
Cells: Drosophila S2R+ cells
Knock-down reagent: long dsRNA against Drosophila genes
Duration: 72 h (48 h, then 24 h hormone)
Conditions: synthetic androgen R1881 at 10 nM for 24 h
Measured: 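Per-well raw luminescence of the androgen-driven firefly reporter and of the Renilla control, two replicates each, without normalisation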
Direction: firefly reporter light: higher = more light from androgen-responsive reporter; Renilla control light: higher = more constitutive control signal (cell number, transfection)
Call rule: 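Across duplicate plates, a knock-down whose log firefly/Renilla ratio shifted a set fold down or up from the GFP/LacZ control mean was a hit; the downward cut appears as both 1.5 and 3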
Calls: active = hit: reporter lowered or raised; inactive = no hit
The screen tested about 24,000 reagents; shown is an unselected part of those that have a named target and a result. Over the whole deposit, 246 (1%) were called active. 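Plates not normalised; calls are printed but the firefly/Renilla ratio behind them is not deposited; fold cut for lowering reported inconsistently.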 The raw values are shown without normalisation. Entries without a mark were called inactive. A plus sign joins genes that one reagent is predicted to hit. Not given: the amount of reagent.

CG5662 [DRSC19957] — firefly reporter light, replicate 1 = 4.07e5; firefly reporter light, replicate 2 = 3.26e5; Renilla control light, replicate 1 = 2.92e6; Renilla control light, replicate 2 = 3.50e6
CG30411 [DRSC04004] — firefly reporter light, replicate 1 = 2.07e5; firefly reporter light, replicate 2 = 2.04e5; Renilla control light, replicate 1 = 4.31e5; Renilla control light, replicate 2 = 4.04e5
CG30411 [DRSC25684] — firefly reporter light, replicate 1 = 5.30e5; firefly reporter light, replicate 2 = 5.65e5; Renilla control light, replicate 1 = 7.13e5; Renilla control light, replicate 2 = 7.32e5
CG13872 [DRSC06431] — firefly reporter light, replicate 1 = 62665; firefly reporter light, replicate 2 = 1.04e5; Renilla control light, replicate 1 = 1.08e6; Renilla control light, replicate 2 = 1.04e6
uncNacbeta [DRSC00326] — firefly reporter light, replicate 1 = 1.38e5; firefly reporter light, replicate 2 = 1.30e5; Renilla control light, replicate 1 = 9.54e5; Renilla control light, replicate 2 = 1.05e6
Jhbp16 (Juvenile hormone binding protein 16) [DRSC15039] — firefly reporter light, replicate 1 = 2.68e5; firefly reporter light, replicate 2 = 2.80e5; Renilla control light, replicate 1 = 2.11e6; Renilla control light, replicate 2 = 2.77e6
sbb (scribbler) [DRSC05723] — firefly reporter light, replicate 1 = 2.18e5; firefly reporter light, replicate 2 = 2.29e5; Renilla control light, replicate 1 = 5.47e5; Renilla control light, replicate 2 = 5.24e5
sbb (scribbler) [DRSC07676] — firefly reporter light, replicate 1 = 83145; firefly reporter light, replicate 2 = 1.12e5; Renilla control light, replicate 1 = 1.02e6; Renilla control light, replicate 2 = 1.02e6
sbb (scribbler) [DRSC28911] — firefly reporter light, replicate 1 = 4.88e5; firefly reporter light, replicate 2 = 5.08e5; Renilla control light, replicate 1 = 1.71e6; Renilla control light, replicate 2 = 2.06e6
eg (eagle) [DRSC11885] — firefly reporter light, replicate 1 = 1.89e5; firefly reporter light, replicate 2 = 2.76e5; Renilla control light, replicate 1 = 3.11e6; Renilla control light, replicate 2 = 3.11e6
eg (eagle) [DRSC26147] — firefly reporter light, replicate 1 = 3.26e5; firefly reporter light, replicate 2 = 3.06e5; Renilla control light, replicate 1 = 6.47e5; Renilla control light, replicate 2 = 6.46e5
LysD + LysC (retired record) [DRSC08674] — firefly reporter light, replicate 1 = 66176; firefly reporter light, replicate 2 = 84173; Renilla control light, replicate 1 = 9.35e5; Renilla control light, replicate 2 = 6.73e5
LysD + LysC (retired record) [DRSC22743] — firefly reporter light, replicate 1 = 4.23e5; firefly reporter light, replicate 2 = 5.10e5; Renilla control light, replicate 1 = 1.29e6; Renilla control light, replicate 2 = 1.17e6
CG32246 [DRSC08115] — firefly reporter light, replicate 1 = 2.78e5; firefly reporter light, replicate 2 = 2.24e5; Renilla control light, replicate 1 = 4.54e5; Renilla control light, replicate 2 = 3.80e5
CG32246 [DRSC24361] — firefly reporter light, replicate 1 = 1.01e6; firefly reporter light, replicate 2 = 8.35e5; Renilla control light, replicate 1 = 7.46e5; Renilla control light, replicate 2 = 7.26e5

In a second layout: entries from further up
CG13872 [DRSC06431]
- firefly reporter light, replicate 1: 62665
- firefly reporter light, replicate 2: 1.04e5
- Renilla control light, replicate 1: 1.08e6
- Renilla control light, replicate 2: 1.04e6

uncNacbeta [DRSC00326]
- firefly reporter light, replicate 1: 1.38e5
- firefly reporter light, replicate 2: 1.30e5
- Renilla control light, replicate 1: 9.54e5
- Renilla control light, replicate 2: 1.05e6
